Experimental data as given in the supplement of paper PMC7661543.
± gives the standard deviation of the averaged measurements. The effect of the compound repeats well; differences between the knockouts mostly do not.

Tested on: MDA-MB-231
Assay: relative cell number vs DMSO control (72 h) (% of DMSO); higher = less growth inhibition (more cells)
Experimental: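 QMAP-Seq: a pool of 5 breast cancer cell lines (ZR-75-1, SKBR3, HCC-38, MDA-MB-231, BT-20), each carrying 12 doxycycline-inducible Cas9 sgRNA perturbations (11 knockouts plus non-targeting sgNT), was treated with compounds for 72 h at four 10-fold doses (10 nM-10 uM or 1 nM-1 uM range). Barcodes were amplified and sequenced, and cell number was interpolated from 293T spike-in standard curves. The result is expressed as % of the median of DMSO wells. Two biological replicates.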

Cc1ccc(F)c(NC(=O)Nc2ccc(-c3cccc4[nH]nc(N)c34)cc2)c1 [Linifanib]
Conditions | relative cell number
sgRNA knockout: sgATF3, 10 nM | 82.5 ± 36
sgRNA knockout: sgATF3, 100 nM | 137 ± 23
sgRNA knockout: sgATF3, 1000 nM | 92.2 ± 10
sgRNA knockout: sgATF3, 10000 nM | 20.1 ± 2.4
sgRNA knockout: sgATF4, 10 nM | 69.7 ± 4.9
sgRNA knockout: sgATF4, 100 nM | 164.5 ± 1.1
sgRNA knockout: sgATF4, 1000 nM | 96.7 ± 30
sgRNA knockout: sgATF4, 10000 nM | 25 ± 3.5
sgRNA knockout: sgATF6, 10 nM | 87.7 ± 32
sgRNA knockout: sgATF6, 100 nM | 98.1 ± 10
sgRNA knockout: sgATF6, 1000 nM | 113 ± 15
sgRNA knockout: sgATF6, 10000 nM | 17.2 ± 0.54
sgRNA knockout: sgATG7, 10 nM | 79.7 ± 18
sgRNA knockout: sgATG7, 100 nM | 92.8 ± 15
sgRNA knockout: sgATG7, 1000 nM | 87 ± 6.5
sgRNA knockout: sgATG7, 10000 nM | 17.1 ± 2.8
sgRNA knockout: sgERN1, 10 nM | 93.7 ± 9
sgRNA knockout: sgERN1, 100 nM | 99.5 ± 1.4
sgRNA knockout: sgERN1, 1000 nM | 98.4 ± 26
sgRNA knockout: sgERN1, 10000 nM | 19.6 ± 6.5
sgRNA knockout: sgHSF1, 10 nM | 77.2 ± 3.6
sgRNA knockout: sgHSF1, 100 nM | 99.7 ± 6.9
sgRNA knockout: sgHSF1, 1000 nM | 87.1 ± 3.6
sgRNA knockout: sgHSF1, 10000 nM | 19.3 ± 6.5
sgRNA knockout: sgHSF2, 10 nM | 87.1 ± 20
sgRNA knockout: sgHSF2, 100 nM | 104 ± 35
sgRNA knockout: sgHSF2, 1000 nM | 106 ± 8.4
sgRNA knockout: sgHSF2, 10000 nM | 13.9 ± 4.2
sgRNA knockout: sgKEAP1, 10 nM | 85.3 ± 23
sgRNA knockout: sgKEAP1, 100 nM | 89 ± 1.2
sgRNA knockout: sgKEAP1, 1000 nM | 108 ± 3.9
sgRNA knockout: sgKEAP1, 10000 nM | 23.1 ± 1.7
sgRNA knockout: sgNFE2L2, 10 nM | 76.4 ± 1.1
sgRNA knockout: sgNFE2L2, 100 nM | 109 ± 22
sgRNA knockout: sgNFE2L2, 1000 nM | 113 ± 29
sgRNA knockout: sgNFE2L2, 10000 nM | 18 ± 0.24
sgRNA knockout: sgSLC35F2, 10 nM | 87.5 ± 26
sgRNA knockout: sgSLC35F2, 100 nM | 101 ± 9.3
sgRNA knockout: sgSLC35F2, 1000 nM | 104 ± 2.9
sgRNA knockout: sgSLC35F2, 10000 nM | 18.3 ± 4.3
sgRNA knockout: sgXBP1, 10 nM | 74.3 ± 14
sgRNA knockout: sgXBP1, 100 nM | 97.2 ± 24
sgRNA knockout: sgXBP1, 1000 nM | 95.3 ± 9.8
sgRNA knockout: sgXBP1, 10000 nM | 16.7 ± 0.72

C[C@]1(O)C[C@@H](c2nc(-c3ccc4ccc(-c5ccccc5)nc4c3)c3c(N)nccn32)C1 [Linsitinib]
Conditions | relative cell number
sgRNA knockout: sgATF3, 10 nM | 106 ± 13
sgRNA knockout: sgATF3, 100 nM | 122 ± 25
sgRNA knockout: sgATF3, 1000 nM | 84 ± 2.3
sgRNA knockout: sgATF3, 10000 nM | 68.3 ± 2.5
sgRNA knockout: sgATF4, 10 nM | 114 ± 20
sgRNA knockout: sgATF4, 100 nM | 146 ± 22
sgRNA knockout: sgATF4, 1000 nM | 93.9 ± 26
sgRNA knockout: sgATF4, 10000 nM | 68.3 ± 25
sgRNA knockout: sgATF6, 10 nM | 99.9 ± 8
sgRNA knockout: sgATF6, 100 nM | 91 ± 34
sgRNA knockout: sgATF6, 1000 nM | 79.8 ± 3.5
sgRNA knockout: sgATF6, 10000 nM | 54.1 ± 4.2
sgRNA knockout: sgATG7, 10 nM | 102 ± 20
sgRNA knockout: sgATG7, 100 nM | 99 ± 5
sgRNA knockout: sgATG7, 1000 nM | 83.5 ± 11
sgRNA knockout: sgATG7, 10000 nM | 63.3 ± 4.8
sgRNA knockout: sgERN1, 10 nM | 89.1 ± 19
sgRNA knockout: sgERN1, 100 nM | 117 ± 2.4
sgRNA knockout: sgERN1, 1000 nM | 75.5 ± 13
sgRNA knockout: sgERN1, 10000 nM | 65.8 ± 13
sgRNA knockout: sgHSF1, 10 nM | 105 ± 32
sgRNA knockout: sgHSF1, 100 nM | 132.8 ± 0.53
sgRNA knockout: sgHSF1, 1000 nM | 74.6 ± 0.75
sgRNA knockout: sgHSF1, 10000 nM | 59.7 ± 15
sgRNA knockout: sgHSF2, 10 nM | 104 ± 17
sgRNA knockout: sgHSF2, 100 nM | 103 ± 18
sgRNA knockout: sgHSF2, 1000 nM | 89.5 ± 2.2
sgRNA knockout: sgHSF2, 10000 nM | 73.8 ± 10
sgRNA knockout: sgKEAP1, 10 nM | 101 ± 13
sgRNA knockout: sgKEAP1, 100 nM | 90.6 ± 5.3
sgRNA knockout: sgKEAP1, 1000 nM | 76 ± 8.8
sgRNA knockout: sgKEAP1, 10000 nM | 78.4 ± 13
sgRNA knockout: sgNFE2L2, 10 nM | 115 ± 14
sgRNA knockout: sgNFE2L2, 100 nM | 103 ± 12
sgRNA knockout: sgNFE2L2, 1000 nM | 72.2 ± 26
sgRNA knockout: sgNFE2L2, 10000 nM | 76.3 ± 11
sgRNA knockout: sgSLC35F2, 10 nM | 92.5 ± 2.1
sgRNA knockout: sgSLC35F2, 100 nM | 89.7 ± 18
sgRNA knockout: sgSLC35F2, 1000 nM | 89.2 ± 3.6
sgRNA knockout: sgSLC35F2, 10000 nM | 52.1 ± 15
sgRNA knockout: sgXBP1, 10 nM | 101 ± 7
sgRNA knockout: sgXBP1, 100 nM | 97 ± 25
sgRNA knockout: sgXBP1, 1000 nM | 88.3 ± 22
sgRNA knockout: sgXBP1, 10000 nM | 56.9 ± 1
